Experimental data as given in article PMC12589438 (Communications Chemistry, 2025).
One purity is given for all peptides; the source may state it once. Some peptides are written in HELM: one residue between dots, names in brackets for other building blocks, links after the first $.

Assay: general procedure: Fmoc solid-phase peptide synthesis; Rink amide resin (Polystyrene AM RAM; 0.69 mmol/g); HATU/DIPEA
Settings: for final purity (method not given): LC-MS

OTK^8[Aoa-FDG]
conjugation yield (conjugation step): 85%
final purity (method not given) (conjugation step): > 95%

PEPTIDE1{C.Y.I.Q.N.C.P.[Lys(Aoa-FBA)].G.[am]}$PEPTIDE1,PEPTIDE1,1:R3-6:R3$$$V2.0
step yield (late stage modification step): 100%
final purity (method not given) (late stage modification step): > 95%

PEPTIDE1{[Mpr].Y.I.Q.N.C.P.[Lys(4FBz)].G.[am]}$PEPTIDE1,PEPTIDE1,1:R3-6:R3$$$V2.0
final purity (method not given) (late stage modification step): > 95%
